These are yes or no findings as the source states them, for the method shown. In cells and extracts the contact can be indirect. Some results given as binding are weak or reduced against the parent protein; the word gives no strength.

Chains of the proteins cited; added tags and fusions are not shown.
UniProt P08684: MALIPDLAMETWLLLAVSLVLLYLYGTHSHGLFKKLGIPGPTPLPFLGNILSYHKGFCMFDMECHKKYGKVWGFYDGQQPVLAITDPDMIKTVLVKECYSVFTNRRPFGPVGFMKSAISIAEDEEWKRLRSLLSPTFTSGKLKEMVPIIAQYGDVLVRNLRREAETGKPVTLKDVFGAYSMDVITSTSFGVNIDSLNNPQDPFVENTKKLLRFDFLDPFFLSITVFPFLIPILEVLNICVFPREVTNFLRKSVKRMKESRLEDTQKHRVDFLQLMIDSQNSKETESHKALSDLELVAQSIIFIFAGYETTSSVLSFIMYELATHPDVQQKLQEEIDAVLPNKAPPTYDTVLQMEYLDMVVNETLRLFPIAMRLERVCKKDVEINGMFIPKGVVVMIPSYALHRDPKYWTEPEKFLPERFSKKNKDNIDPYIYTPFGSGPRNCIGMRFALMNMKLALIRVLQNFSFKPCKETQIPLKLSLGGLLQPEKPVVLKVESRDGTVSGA
UniProt P10635: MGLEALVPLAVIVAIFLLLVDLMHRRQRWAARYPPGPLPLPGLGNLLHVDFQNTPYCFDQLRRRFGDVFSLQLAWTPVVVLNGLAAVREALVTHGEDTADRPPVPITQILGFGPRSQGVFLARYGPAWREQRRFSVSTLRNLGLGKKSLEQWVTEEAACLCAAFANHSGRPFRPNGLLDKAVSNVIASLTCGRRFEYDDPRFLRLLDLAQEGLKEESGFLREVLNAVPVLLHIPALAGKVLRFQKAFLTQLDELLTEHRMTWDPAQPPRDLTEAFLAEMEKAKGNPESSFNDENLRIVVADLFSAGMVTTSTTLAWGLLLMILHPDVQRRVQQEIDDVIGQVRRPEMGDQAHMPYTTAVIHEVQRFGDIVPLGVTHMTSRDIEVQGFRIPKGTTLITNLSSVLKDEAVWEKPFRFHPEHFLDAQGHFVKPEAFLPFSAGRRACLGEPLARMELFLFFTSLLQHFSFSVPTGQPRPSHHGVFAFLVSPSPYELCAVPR
UniProt P04406: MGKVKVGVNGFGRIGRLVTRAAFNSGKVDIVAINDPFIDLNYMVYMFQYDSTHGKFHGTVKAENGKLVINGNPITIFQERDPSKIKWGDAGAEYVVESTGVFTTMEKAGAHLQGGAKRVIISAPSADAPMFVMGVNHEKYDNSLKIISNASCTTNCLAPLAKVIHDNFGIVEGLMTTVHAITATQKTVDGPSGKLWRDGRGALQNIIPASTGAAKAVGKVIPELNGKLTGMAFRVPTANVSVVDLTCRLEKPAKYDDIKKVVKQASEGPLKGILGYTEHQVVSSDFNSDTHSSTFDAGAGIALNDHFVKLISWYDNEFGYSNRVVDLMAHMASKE

In experiment [1] the target is FLAG and MYC-tagged human CYP3A4 (human) (UniProt P08684). Description: co-IP; HEK293T cell supernatants (1 mg protein), anti-FLAG antibody and protein G-Sepharose at 4 °C overnight; washed with 40 mM EPPS, 150 mM NaCl, 10% glycerol, 0.5% Nonidet P-40, pH 7.6; Western blot for GAPDH and Hsp90; cells heme-deficient (SA, heme-depleted serum), cultured normally, or given 5 μM hemin.

Experiment [2] addresses FLAG and MYC-tagged human CYP2D6 (human) (UniProt P10635). Described as above.
In experiment [3] the target is CYP3A4 induced by rifampicin in HEPG2 cells (human (endogenous in HEPG2)) (UniProt P08684). Description: co-IP; HEPG2 cell supernatants, antibody pulldown on protein G-Sepharose, Western blot for GAPDH and Hsp90; CYP3A4 induced by rifampicin, CYP2D6 transfected; cells heme-deficient, cultured normally, or given hemin.
For experiment [4], the target named is FLAG-MYC tagged CYP2D6 expressed in HEPG2 cells (human) (UniProt P10635). The description is as above.

In the case of “GAPDH (endogenous, HEK293T) (from UniProt P04406 1-335) (enzyme)”, the binding result in experiment [1] and in experiment [2] was “binds” throughout.

On to “GAPDH (endogenous, HEPG2) (from UniProt P04406 1-335) (enzyme)”, for which the binding result in experiment [3] and in experiment [4] was “binds” throughout.

(Values after paper PMC10840333.)
